The source of these data is publication PMC3979655.

Protein sequences, listed by entry. Tags and fused reporters are not part of them.
UniProt O22456: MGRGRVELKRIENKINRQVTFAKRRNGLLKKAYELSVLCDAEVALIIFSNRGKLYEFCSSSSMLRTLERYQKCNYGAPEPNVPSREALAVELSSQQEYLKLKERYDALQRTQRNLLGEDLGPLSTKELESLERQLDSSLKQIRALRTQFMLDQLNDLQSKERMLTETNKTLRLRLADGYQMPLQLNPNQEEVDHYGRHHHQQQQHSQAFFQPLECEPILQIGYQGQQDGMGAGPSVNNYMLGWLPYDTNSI
UniProt P35631: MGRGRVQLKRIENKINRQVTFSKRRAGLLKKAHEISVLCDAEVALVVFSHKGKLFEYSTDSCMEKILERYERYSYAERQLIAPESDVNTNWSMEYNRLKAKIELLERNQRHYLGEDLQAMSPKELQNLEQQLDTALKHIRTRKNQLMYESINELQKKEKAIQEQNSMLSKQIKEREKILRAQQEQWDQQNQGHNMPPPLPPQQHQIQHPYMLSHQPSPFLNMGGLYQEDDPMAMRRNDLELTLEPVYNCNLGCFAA
UniProt O64645: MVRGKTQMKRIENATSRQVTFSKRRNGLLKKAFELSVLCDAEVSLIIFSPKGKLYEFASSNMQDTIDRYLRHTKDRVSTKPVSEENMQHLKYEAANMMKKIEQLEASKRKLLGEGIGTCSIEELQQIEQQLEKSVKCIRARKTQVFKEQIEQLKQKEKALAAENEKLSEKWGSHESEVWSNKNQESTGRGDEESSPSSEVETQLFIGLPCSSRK

Results are given in words; binding and its absence hold for the method and conditions named. Binding seen in cells or lysates may run through a third protein. Binding can be weak; no strength is given.

This assay concerns the target GFP-tagged SAP54 transiently expressed in N. benthamiana (Aster Yellows phytoplasma strain Witches' Broom (AY-WB)) (UniProt Q2NJQ2). As to the kind of experiment: co-IP; GFP-Trap immunoprecipitation from N. benthamiana leaves transiently co-expressing GFP-tagged SAP54 or GFP and 10xmyc-tagged MTFs, in the presence or absence of 50 µM epoxomicin; 4°C overnight; blot with anti-myc.
Take “10xmyc-tagged SEP3 (35S:10xmyc–MTF, pGWB21) (from UniProt O22456 1-251)”: the binding entry is recorded as “binds”.

Regarding “10xmyc-tagged AP1 (35S:10xmyc–MTF, pGWB21) (from UniProt P35631 1-256)”, the binding entry is given as “binds”.

For “10xmyc-tagged SOC1 (35S:10xmyc–MTF, pGWB21) (from UniProt O64645 1-214)”, the binding result was “binds”.
